## Screening data

Data taken from PubChem BioAssay AID1159506, deposited by NCATS (2015).

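Luminescence from an EWS-FLI1 target-promoter (NR0B1) reporter, set against a CMV-promoter reporter, two days after silencing single genes in TC32 Ewing sarcoma cells.
Each siRNA was applied at 20 nM.
A z-score of the log NR0B1-over-CMV signal, less the median of siRNAs with the same seed; more negative means a stronger specific loss of the NR0B1 reporter.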

The strongest results of the screen are mostly left out here.
Sequences are the guide (antisense) strand, without overhang.

For UUUUAAGCGAAAAUAGAGC against LCMT2 the result was seed-corrected z-score 0.02536. UCCGAUUAAAACGCAACCG against CWC27 read seed-corrected z-score -0.8454. CAUUGAUACAGGUAGCGCC against BGLAP gave seed-corrected z-score 1.799. With UUCAUAUCUAGAGCUCUCA against ZNF768 the assay gave seed-corrected z-score -0.54. Result for UUUUAGGCAAAGGACAAUC against SLC16A9 was seed-corrected z-score 0.1557. Result for UAUGGAAUUGAGUUAGCAC against SSBP3 was seed-corrected z-score 0.5523. UUUCUCAAACGAGUUGGUC against TMEM246 gave seed-corrected z-score -0.2727. UAGUGUCAGACAACCUUUG against NABP2 gave seed-corrected z-score 1.095.

UUCGGUGAAUGUAAACUCC against AHI1 gave seed-corrected z-score 0.07608. UAGCGGAUGAGGAUCCUUC against PCNX2 gave seed-corrected z-score 1.102. AAUAAGGUCACUUGGACGG against FAM214B read seed-corrected z-score 0.2344. AAAGAAGAUGUAAUCGUCC against SORCS2 gave seed-corrected z-score 0.3585. UUAGGGAAUAGCCUAUGUG against TIPIN read seed-corrected z-score 0.6809. UUCCGUCAUUGUAAAAAGC against TENM4 gave seed-corrected z-score 1.127. With UCAUGGGACAUUGGUACGG against IRF4 the assay gave seed-corrected z-score -0.3577. With UCCACACUUAUGAUAGUGC against UTP4 the assay gave seed-corrected z-score 0.6849.

UAUCUUCAUCAUAUAACCG against C11orf70 gave seed-corrected z-score -0.58. Result for UUGUUGUAGAAUGAAGAGC against TMEM64 was seed-corrected z-score 1.173. For UUAGUUUUGAGCUCUCAAC against ZFP42 the result was seed-corrected z-score 0.03634. For AGAUGUCCAAGAUCUGACG against ANKLE1 the result was seed-corrected z-score 1.128. AUUGGCAACAGGAUGACCC against KRTAP5-1 gave seed-corrected z-score 1.388. Result for UUUGGAUCCAUGUUGGAGU against SEMG1 was seed-corrected z-score 0.315. Result for UUCUUUAGUAAUACACUGG against TYW3 was seed-corrected z-score -0.4104. With UCCUCUUUCACGUCGGUCU against HAND2 the assay gave seed-corrected z-score -0.05145.

Result for UUUCUUGUUGGGCUGAAUG against CYB5R1 was seed-corrected z-score 0.7005. UGAGUAGACAGGCUGCUUC against LINC00917 read seed-corrected z-score 0.2873. For UUUGAGACACUUCAUUUGC against DHRS11 the result was seed-corrected z-score -0.3402. UAGGAACUCAUCUCCAUGU against PPP1R32 read seed-corrected z-score -0.01936. UUUGGUUUCCACAUAAGGC against FAXDC2 gave seed-corrected z-score -0.447. Result for AACUUGUCCAGGUAAAGGC against CEP76 was seed-corrected z-score -0.2088. For ACUUGGACAGCCAUGGUGC against RHBDD3 the result was seed-corrected z-score 1.525. UCUUGAACUGAGAUGGUCC against CCDC36 gave seed-corrected z-score -0.9464.

With UUGUAGACAAUCAUGAAGC against ELOVL1 the assay gave seed-corrected z-score -0.4251. UUCAGUACCAUGUCAGAGG against NSL1 gave seed-corrected z-score 0.7438. For UUGGUAUGUAUUCUAAAGC against IFIT2 the result was seed-corrected z-score 1.117. Result for AAGGCUAACAGAGCUGUCC against SLC41A2 was seed-corrected z-score 0.3934. UUCGUUAGUCUUACUGCUC against ANKIB1 read seed-corrected z-score -1.822. With AUAGUCACACUCGAAGUCC against SORCS3 the assay gave seed-corrected z-score -0.4841. Result for UGAUGUCAUAGAUCCACCC against SLC16A14 was seed-corrected z-score -0.1756. AUCGUCUUAAUCGUCUUUC against SCN1A read seed-corrected z-score -0.4711.

UUUCUGAUCAAGACAUAGG against FAM226B read seed-corrected z-score -0.6446. UCGGUUUCCAUUAAAUGUG against AJAP1 gave seed-corrected z-score -0.02711. With UCUGGAUCCACCAUCACCA against PEBP4 the assay gave seed-corrected z-score -0.7518. UUACGGUCGAUCACUAGCC against FADS1 read seed-corrected z-score -0.5048. With UCCUGAUCCACACUAUACC against STARD7 the assay gave seed-corrected z-score -0.3345. UAUCUAUGGAGAGCUGUUC against SRRD gave seed-corrected z-score 0.6669. Result for AACAUCAUCAAAUGAAGCC against GAB3 was seed-corrected z-score 1.244. UGAAGAGUAUGUAAAGGGC against IL23R read seed-corrected z-score 0.9598.

With UAAGUGGCUCUUGCCAUAG against ZNF703 the assay gave seed-corrected z-score -0.6878. For AUAUUUGAAGGAUUCUACU against PHKA1P1 the result was seed-corrected z-score 0.3014.

Repeated from the top, 4 entries:

{"strand": "UUUUAAGCGAAAAUAGAGC", "gene": "LCMT2", "seed-corrected z-score": "0.02536"}
{"strand": "UCCGAUUAAAACGCAACCG", "gene": "CWC27", "seed-corrected z-score": "-0.8454"}
{"strand": "CAUUGAUACAGGUAGCGCC", "gene": "BGLAP", "seed-corrected z-score": "1.799"}
{"strand": "UUCAUAUCUAGAGCUCUCA", "gene": "ZNF768", "seed-corrected z-score": "-0.54"}